Test results published in patent US20070054846A1, “Bcl-w structure and uses therefor” (priority 2002, published 2007).
Results are given in words; binding and its absence hold for the method and conditions named. In cells and extracts the contact can be indirect. Some binding calls cover weakened binding; strength is not graded here.

Amino acid sequences for entries named in this document (tags omitted). A change or cut given only in a name is not applied to a line headed by its entry. Chains listed by the source or under a name are the forms on record and can include a tag or linker.
EE-BimL (O54918, form named): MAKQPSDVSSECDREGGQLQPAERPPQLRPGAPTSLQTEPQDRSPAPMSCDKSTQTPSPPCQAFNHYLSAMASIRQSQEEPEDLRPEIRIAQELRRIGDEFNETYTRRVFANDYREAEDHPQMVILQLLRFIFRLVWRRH
BimLΔC27 (O54918, form named): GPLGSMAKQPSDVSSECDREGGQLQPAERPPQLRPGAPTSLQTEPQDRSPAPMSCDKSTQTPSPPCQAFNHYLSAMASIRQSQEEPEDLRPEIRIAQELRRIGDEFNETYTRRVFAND
UniProt Q07817: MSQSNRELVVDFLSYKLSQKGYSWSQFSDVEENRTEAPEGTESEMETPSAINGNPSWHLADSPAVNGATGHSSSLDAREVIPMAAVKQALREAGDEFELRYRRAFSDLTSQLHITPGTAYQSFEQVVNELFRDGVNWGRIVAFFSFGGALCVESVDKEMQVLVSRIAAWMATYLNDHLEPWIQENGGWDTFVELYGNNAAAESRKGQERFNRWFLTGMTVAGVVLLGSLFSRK

How the values were obtained:
EE-BimL [1] = biological target: EE-BimL (UniProt O54918); experiment: co-immunoprecipitation from 35S-labelled 293T lysates with anti-FLAG (α-F), anti-EE (α-E) and control anti-HA (α-H) [upper left gel]
EE-BimL [2] = biological target: EE-BimL (UniProt O54918); experiment: co-immunoprecipitation from cell extracts
BimLΔC27 (mouse) [3] = biological target: BimLΔC27 (mouse) (UniProt O54918); experiment: GST pull-down
BimLΔC27 (mouse) [4] = biological target: BimLΔC27 (mouse) (UniProt O54918); experiment: GST pull-down, stained SDS-PAGE

| binding (EE-BimL [1]) | binding (EE-BimL [2]) | binding (BimLΔC27 (mouse) [3]) | binding (BimLΔC27 (mouse) [4]) | Substance |
| --- | --- | --- | --- | --- |
| binds | binds |  |  | FLAG Bcl-xL (full-length) (from UniProt Q07817 1-233) |
|  |  | binds | binds | GST-Bcl-xL (full-length) (from UniProt Q07817 1-233) |
